Consider 9 substances from publication PMC9959817 (Molecules, 2023).

Strings that start with PEPTIDE1 are HELM notation: dots part the residues, brackets hold end groups and non-standard residues.

Series [1] in a line: general procedure: Fmoc solid-phase peptide synthesis in flow; TentaGel S NH2 (0.25 mmol/g) with HMPA linker; also AM-PS, TentaGel HL NH2 and ChemMatrix in optimisation; HCTU; PyAOP/sym-collidine for Cys and His. The following applies: for step yield: purification step.
A short description of series [2]: general procedure: Fmoc solid-phase peptide synthesis in flow; TentaGel S NH2; HCTU; PyAOP/sym-collidine for Cys and His. The following applies: whole synthesis, scale 0.15 mmol.
[3] abbreviates: whole synthesis, 214 nm, scale of the general procedure 0.15 mmol (flow), 0.1 mmol (batch).
Setting [4] is: whole synthesis, analytical RP-HPLC (214 nm), scale of the general procedure 0.15 mmol (flow), 0.1 mmol (batch).
Where [5] appears, read: whole synthesis, scale of the general procedure 0.15 mmol (flow), 0.1 mmol (batch).

The substance “PEPTIDE1{R.K.A.N.F.L.A.K.L.K.E.K.L.R.T.V.I.T.S.H.I.D.K.V.L.R.P.Q.G}$$$$V2.0” had a step yield in series [1] of 52%. Also, the isolated mass in series [1] (whole synthesis) stood at 212.35 mg. Further, the “crude HPLC purity” value in series [1] (setting [3]) was determined as 51.6%. In series [1] (setting [4]), the “final HPLC purity” value is 9 8.2%. In series [1] (setting [5]), this substance gave a crude yield of 81%. Besides, the crude mass in series [2] amounted to 408.36 mg.
Regarding “PEPTIDE1{R.K.C.N.F.L.C.K.L.K.E.K.L.R.T.V.I.T.S.H.I.D.K.V.L.R.P.Q.G}$PEPTIDE1,PEPTIDE1,3:R3-7:R3|PEPTIDE1,PEPTIDE1,1:R1-29:R2$$$V2.0”, the step yield in series [1] amounted to 12.1%. In series [1] (whole synthesis), this substance had a crude mass of 68 mg and an isolated mass of 8.2 mg. Also, the “final HPLC purity” value in series [1] (setting [3]) is given as 97.8%. Further, the “crude HPLC purity” value in series [1] (setting [4]) is listed as 18.6%. The substance also had a crude yield in series [1] (setting [5]) of 13.3%.
Regarding “PEPTIDE1{R.K.C.N.F.L.C.K.L.K.E.K.L.R.T.V.I.T.S.H.I.D.K.V.L.R.P.Q.G}$PEPTIDE1,PEPTIDE1,7:R3-3:R3$$$V2.0”, the step yield in series [1] came out at 52%. This substance also showed an isolated mass in series [1] (whole synthesis) of 148.15 mg. Moreover, the “crude HPLC purity” value in series [1] (setting [3]) was 55.6%. Further, the “final HPLC purity” value in series [1] (setting [4]) was found to be 95%. In series [1] (whole synthesis, based on initial resin loading, scale of the general procedure 0.15 mmol (flow), 0.1 mmol (batch)), this substance had an isolated yield of 28.6%. For the same substance, the crude yield in series [1] (setting [5]) was 55%. Besides, the crude mass in series [2] amounted to 284.9 mg.
The substance “PEPTIDE1{R.K.D.N.F.L.K.K.L.K.E.K.L.R.T.V.I.T.S.H.I.D.K.V.L.R.P.Q.G}$PEPTIDE1,PEPTIDE1,3:R3-7:R3$$$V2.0” had a step yield in series [1] of 10.8%. In series [1] (whole synthesis), this substance yielded a crude mass of 301.5 mg and an isolated mass of 32.56 mg. In series [1] (setting [4]), the “crude HPLC purity” value turned out to be 44.6% and the “final HPLC purity” value came out at 98.1%. In series [1] (whole synthesis, scale of the general procedure 0.15 mmol (flow), 0.1 mmol (batch), run 1), the crude yield was found to be 58.4%. Also, the crude yield entry in series [1] (whole synthesis, scale of the general procedure 0.15 mmol (flow), 0.1 mmol (batch), run 2) was “yield 37.8%”.
Regarding “PEPTIDE1{R.K.D.N.F.L.[Dab].K.L.K.E.K.L.R.T.V.I.T.S.H.I.D.K.V.L.R.P.Q.G}$PEPTIDE1,PEPTIDE1,3:R3-7:R3$$$V2.0”, the step yield entry in series [1] is recorded as “yield 7.58%”. In series [1] (whole synthesis), this substance returned a crude mass of 186.92 mg and an isolated mass of 14.17 mg. In series [1] (setting [4]), the “crude HPLC purity” value amounted to 48% and the “final HPLC purity” value was 99%. The crude yield in series [1] (setting [5]) stood at 36.5%.
With “PEPTIDE1{R.K.E.N.F.L.K.K.L.K.E.K.L.R.T.V.I.T.S.H.I.D.K.V.L.R.P.Q.G}$PEPTIDE1,PEPTIDE1,3:R3-7:R3$$$V2.0”, the step yield in series [1] turned out to be 11.2%. In series [1] (whole synthesis), the crude mass is recorded as 363.8 mg and the isolated mass worked out at 40.75 mg. Besides, in series [1] (setting [4]), the “crude HPLC purity” value amounted to 54.6% and the “final HPLC purity” value is listed as 95.8%. Moreover, in series [1] (setting [5]), the crude yield was determined as 65.6%.
On to “PEPTIDE1{R.K.E.N.F.L.[Dab].K.L.K.E.K.L.R.T.V.I.T.S.H.I.D.K.V.L.R.P.Q.G}$PEPTIDE1,PEPTIDE1,3:R3-7:R3$$$V2.0”, for which the step yield entry in series [1] is listed as “yield 7%”. Further, in series [1] (whole synthesis), the crude mass was 191.2 mg and the isolated mass is listed as 13.38 mg. For the same substance, in series [1] (setting [4]), the “crude HPLC purity” value is given as 51% and the “final HPLC purity” value was determined as 95.1%. Moreover, in series [1] (setting [5]), the crude yield entry was “yield 37%”.
On to “PEPTIDE1{R.K.K.N.F.L.D.K.L.K.E.K.L.R.T.V.I.T.S.H.I.D.K.V.L.R.P.Q.G}$PEPTIDE1,PEPTIDE1,3:R3-7:R3$$$V2.0”, for which, in series [1], the step yield result is reported as “yield 10.6%”. In series [1] (whole synthesis), this substance displayed a crude mass of 296.4 mg and an isolated mass of 31.42 mg. In series [1] (setting [4]), the “crude HPLC purity” value stood at 51% and the “final HPLC purity” value came to 99.1%. Moreover, the crude yield entry in series [1] (setting [5]) is listed as “yield 57%”.
Consider “PEPTIDE1{R.K.K.N.F.L.E.K.L.K.E.K.L.R.T.V.I.T.S.H.I.D.K.V.L.R.P.Q.G}$PEPTIDE1,PEPTIDE1,3:R3-7:R3$$$V2.0”, for which, in series [1], the step yield entry was “yield 9.1%”. In series [1] (whole synthesis), this substance gave a crude mass of 373.4 mg and an isolated mass of 33.97 mg. In addition, in series [1] (setting [4]), the “crude HPLC purity” value was 43.8% and the “final HPLC purity” value is reported as 98.8%. In series [1] (setting [5]), this substance came in with a crude yield of 67.7%.
